Test results taken from US4242358A, “Method of treatment of algiae” (Societe de Recherches Industrielles (Sori), priority 1979, dated 1980).
Some of these results come from one statement about several compounds together.

Assay: hypolipemic, hypocholesterolemic and anti-inflammatory activity
Conditions: besides antalgic activity

SMILES | hypolipemic and hypocholesterolemic activity, and anti-inflammatory activity
CC(Oc1cccc(C(=O)c2ccc(Cl)cc2Cl)c1)C(=O)O (centres unmarked) [Example 8] | at a lower level
Cc1ccccc1C(=O)c1cccc(OC(C)(C)C(=O)O)c1 [Example 11] | at a lower level
Cc1ccc(C(=O)c2cccc(OC(C)(C)C(=O)O)c2)c(C)c1 [Example 10] | at a lower level
Cc1ccc(C(=O)c2cccc(OCC(=O)O)c2)cc1 [Example 12] | at a lower level
CC(Oc1cccc(C(=O)c2ccccc2)c1)C(=O)O (centres unmarked) [Example 6] | at a lower level
Cc1ccc(C(=O)c2cccc(OC(C)C(=O)O)c2)cc1 (centres unmarked) [Example 13] | at a lower level
CC(Oc1cccc(C(=O)c2cccc(C(F)(F)F)c2)c1)C(=O)O (centres unmarked) [Example 7] | at a lower level
O=C(O)COc1cccc(C(=O)c2ccc(Cl)cc2Cl)c1 [Example 9] | at a lower level
